Test results taken from ChEMBL document CHEMBL1821726, “The discovery of benzanilides as c-Met receptor tyrosine kinase inhibitors by a directed screening approach” (Bioorg Med Chem Lett, 2011).

Assay: Lipophilicity, log D of the compound at pH 7.4
Settings: buffer

O=C(Nc1cccc(O)c1)c1ccc(OCCCN2CCCC2)cc1OCc1cccc(F)c1
logD: 3.1
